Read-outs that look alike come from different tables or passages of the source. These are yes or no findings as the source states them, for the method shown. In cells and extracts the contact can be indirect. These calls come from enrichment with a bait or labelling near it, and not all partners need be listed. For part of these data: A no says only that the protein was not detected with the bait. Values belong to the molecule of their own block, whether it stands above or below them.
Columns and labels:
Assay in all cases: proximity labelling; APEX2 fused to Merlin in M10G cells; 0.1 μg/ml doxycycline 24 h; 0.5 mM biotin-phenol 30 min at 37 °C, 1 mM H2O2 30 s on ice; streptavidin pulldown and mass spectrometry (n = 3/condition)
[1] = target: Merlin^A211D with C-terminal FLAG and APEX2 tags (human) (UniProt P35240)
[2] = target: Merlin^S13A (unphosphorylatable) with FLAG and APEX2 tags (human) (UniProt P35240)
[3] = target: Merlin^WT with C-terminal FLAG and APEX2 tags (human) (UniProt P35240)
[4] = target: Merlin^L46R with C-terminal FLAG and APEX2 tags (human) (UniProt P35240)
[5] = target: Merlin^S13D (phospho-mimetic) with FLAG and APEX2 tags (human) (UniProt P35240)
[6] = target: Merlin^WT with C-terminal FLAG and APEX2 tags (human) (UniProt P35240); remark: listed apart in the source

By UniProt entry, the sequences of proteins in these tests, tags left out. Where a name states a change or a piece, a line headed by the entry shows the natural chain unless it says otherwise. Residues count along the entry.
UniProt P35240: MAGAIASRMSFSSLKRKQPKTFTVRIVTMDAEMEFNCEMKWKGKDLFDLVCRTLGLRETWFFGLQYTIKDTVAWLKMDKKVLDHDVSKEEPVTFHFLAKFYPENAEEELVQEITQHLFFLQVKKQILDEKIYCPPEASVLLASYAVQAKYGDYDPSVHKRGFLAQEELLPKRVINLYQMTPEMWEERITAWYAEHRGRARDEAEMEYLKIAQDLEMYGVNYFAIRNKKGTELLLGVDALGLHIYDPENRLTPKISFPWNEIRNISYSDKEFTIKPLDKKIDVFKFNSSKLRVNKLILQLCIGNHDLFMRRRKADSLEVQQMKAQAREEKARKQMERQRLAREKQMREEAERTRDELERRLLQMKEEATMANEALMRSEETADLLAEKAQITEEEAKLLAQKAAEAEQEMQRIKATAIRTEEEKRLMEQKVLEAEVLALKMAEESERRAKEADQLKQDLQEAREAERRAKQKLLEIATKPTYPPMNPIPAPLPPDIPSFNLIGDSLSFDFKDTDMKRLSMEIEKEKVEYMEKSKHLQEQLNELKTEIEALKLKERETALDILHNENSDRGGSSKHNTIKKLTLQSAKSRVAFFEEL
UniProt Q9Y2J4: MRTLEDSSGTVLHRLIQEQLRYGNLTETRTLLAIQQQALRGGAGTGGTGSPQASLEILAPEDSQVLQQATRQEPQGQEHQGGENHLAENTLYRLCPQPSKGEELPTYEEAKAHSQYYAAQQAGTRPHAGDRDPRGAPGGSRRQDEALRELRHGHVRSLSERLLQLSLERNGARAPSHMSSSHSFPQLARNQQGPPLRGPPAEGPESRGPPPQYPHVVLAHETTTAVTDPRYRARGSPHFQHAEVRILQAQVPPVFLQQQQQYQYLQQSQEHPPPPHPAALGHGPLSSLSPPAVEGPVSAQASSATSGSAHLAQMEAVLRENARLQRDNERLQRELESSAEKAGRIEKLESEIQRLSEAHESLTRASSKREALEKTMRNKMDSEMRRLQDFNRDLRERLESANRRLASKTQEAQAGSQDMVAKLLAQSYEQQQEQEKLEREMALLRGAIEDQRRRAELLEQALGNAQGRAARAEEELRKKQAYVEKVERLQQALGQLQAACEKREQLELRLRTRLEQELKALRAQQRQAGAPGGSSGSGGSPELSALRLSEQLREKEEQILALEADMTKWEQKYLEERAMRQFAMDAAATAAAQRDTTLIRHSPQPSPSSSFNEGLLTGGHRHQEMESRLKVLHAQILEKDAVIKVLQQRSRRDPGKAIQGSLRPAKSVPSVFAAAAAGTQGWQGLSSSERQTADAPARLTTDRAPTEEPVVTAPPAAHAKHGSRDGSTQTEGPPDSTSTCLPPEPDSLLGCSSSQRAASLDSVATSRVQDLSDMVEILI
UniProt P35222: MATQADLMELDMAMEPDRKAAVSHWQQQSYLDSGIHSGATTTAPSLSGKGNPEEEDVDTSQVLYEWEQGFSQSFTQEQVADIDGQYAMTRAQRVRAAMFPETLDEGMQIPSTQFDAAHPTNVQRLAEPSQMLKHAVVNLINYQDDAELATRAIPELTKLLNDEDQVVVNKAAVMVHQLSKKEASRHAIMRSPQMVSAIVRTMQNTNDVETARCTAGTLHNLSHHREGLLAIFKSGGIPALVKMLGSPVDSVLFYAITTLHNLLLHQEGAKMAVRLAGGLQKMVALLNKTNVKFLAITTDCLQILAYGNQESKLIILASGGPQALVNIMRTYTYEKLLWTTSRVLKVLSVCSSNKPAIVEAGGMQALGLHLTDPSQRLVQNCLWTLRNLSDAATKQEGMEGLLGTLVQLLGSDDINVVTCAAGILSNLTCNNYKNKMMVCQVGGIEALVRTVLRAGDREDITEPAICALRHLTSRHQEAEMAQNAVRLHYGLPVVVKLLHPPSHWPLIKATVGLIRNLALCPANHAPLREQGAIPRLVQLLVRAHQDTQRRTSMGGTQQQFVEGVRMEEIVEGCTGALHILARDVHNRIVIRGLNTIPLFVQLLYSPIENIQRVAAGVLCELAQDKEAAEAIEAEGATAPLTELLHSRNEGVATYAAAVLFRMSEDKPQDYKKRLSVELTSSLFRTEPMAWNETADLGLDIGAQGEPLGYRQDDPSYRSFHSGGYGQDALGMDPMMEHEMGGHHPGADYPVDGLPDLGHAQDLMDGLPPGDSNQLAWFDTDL
UniProt Q14126, residues 50-1118: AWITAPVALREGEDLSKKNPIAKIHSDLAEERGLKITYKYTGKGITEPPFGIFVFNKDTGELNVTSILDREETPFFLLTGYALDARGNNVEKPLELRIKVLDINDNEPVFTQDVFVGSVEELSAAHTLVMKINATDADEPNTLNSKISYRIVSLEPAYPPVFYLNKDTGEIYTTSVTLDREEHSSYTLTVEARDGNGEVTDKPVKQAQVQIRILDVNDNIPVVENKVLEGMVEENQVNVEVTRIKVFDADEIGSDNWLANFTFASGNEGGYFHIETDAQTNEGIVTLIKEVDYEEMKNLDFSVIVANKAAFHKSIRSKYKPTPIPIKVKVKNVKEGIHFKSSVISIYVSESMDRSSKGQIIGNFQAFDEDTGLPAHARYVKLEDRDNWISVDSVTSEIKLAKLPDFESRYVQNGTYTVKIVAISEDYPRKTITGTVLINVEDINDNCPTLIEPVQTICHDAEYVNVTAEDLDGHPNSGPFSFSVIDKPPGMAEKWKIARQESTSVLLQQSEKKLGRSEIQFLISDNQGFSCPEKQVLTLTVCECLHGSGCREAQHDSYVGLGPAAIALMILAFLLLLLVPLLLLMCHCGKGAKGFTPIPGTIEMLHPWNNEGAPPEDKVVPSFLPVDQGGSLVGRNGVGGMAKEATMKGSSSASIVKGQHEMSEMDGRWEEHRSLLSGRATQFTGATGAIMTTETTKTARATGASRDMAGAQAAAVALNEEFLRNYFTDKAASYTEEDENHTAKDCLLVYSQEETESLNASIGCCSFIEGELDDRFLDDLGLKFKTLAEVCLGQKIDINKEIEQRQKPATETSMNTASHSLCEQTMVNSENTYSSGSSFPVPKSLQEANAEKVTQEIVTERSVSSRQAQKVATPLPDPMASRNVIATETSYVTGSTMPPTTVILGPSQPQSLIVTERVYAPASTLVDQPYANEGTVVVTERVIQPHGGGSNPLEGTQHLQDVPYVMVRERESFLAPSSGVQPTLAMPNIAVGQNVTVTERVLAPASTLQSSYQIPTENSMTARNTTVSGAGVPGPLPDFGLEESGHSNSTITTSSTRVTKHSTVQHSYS
UniProt P62136: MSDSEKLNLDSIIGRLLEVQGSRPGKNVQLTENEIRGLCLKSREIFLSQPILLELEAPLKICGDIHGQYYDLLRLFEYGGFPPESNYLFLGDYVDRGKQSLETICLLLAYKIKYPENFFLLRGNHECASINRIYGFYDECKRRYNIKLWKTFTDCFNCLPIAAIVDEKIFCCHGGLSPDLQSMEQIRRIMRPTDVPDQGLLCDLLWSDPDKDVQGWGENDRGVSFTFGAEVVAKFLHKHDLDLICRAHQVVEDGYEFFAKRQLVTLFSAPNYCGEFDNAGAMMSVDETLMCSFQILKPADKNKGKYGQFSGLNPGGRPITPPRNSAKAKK

Molecule: AMOTL2 (endogenous, meningioma cells) (from UniProt Q9Y2J4 1-779)
binding [3]: binds

B1: AMOTL1 (endogenous, meningioma cells) (protein, UniProt Q8IY63 1-956)
chain: MWRAKLRRGTCEPAVKGSPSACYSPSSPVQVLEDSTYFSPDFQLYSGRHETSALTVEATSSIREKVVEDPLCNFHSPNFLRISEVEMRGSEDAAAGTVLQRLIQEQLRYGTPTENMNLLAIQHQATGSAGPAHPTNNFSSTENLTQEDPQMVYQSARQEPQGQEHQVDNTVMEKQVRSTQPQQNNEELPTYEEAKAQSQFFRGQQQQQQQQGAVGHGYYMAGGTSQKSRTEGRPTVNRANSGQAHKDEALKELKQGHVRSLSERIMQLSLERNGAKQHLPGSGNGKGFKVGGGPSPAQPAGKVLDPRGPPPEYPFKTKQMMSPVSKTQEHGLFYGDQHPGMLHEMVKPYPAPQPVRTDVAVLRYQPPPEYGVTSRPCQLPFPSTMQQHSPMSSQTSSASGPLHSVSLPLPLPMALGAPQPPPAASPSQQLGPDAFAIVERAQQMVEILTEENRVLHQELQGYYDNADKLHKFEKELQRISEAYESLVKSTTKRESLDKAMRNKLEGEIRRLHDFNRDLRDRLETANRQLSSREYEGHEDKAAEGHYASQNKEFLKEKEKLEMELAAVRTASEDHRRHIEILDQALSNAQARVIKLEEELREKQAYVEKVEKLQQALTQLQSACEKREQMERRLRTWLERELDALRTQQKHGNGQPANMPEYNAPALLELVREKEERILALEADMTKWEQKYLEESTIRHFAMNAAATAAAERDTTIINHSRNGSYGESSLEAHIWQEEEEVVQANRRCQDMEYTIKNLHAKIIEKDAMIKVLQQRSRKDAGKTDSSSLRPARSVPSIAAATGTHSRQTSLTSSQLAEEKKEEKTWKGSIGLLLGKEHHEHASAPLLPPPPTSALSSIASTTAASSAHAKTGSKDSSTQTDKSAELFWPSMASLPSRGRLSTTPAHSPVLKHPAAKGTAEKLENSPGHGKSPDHRGRVSSLLHKPEFPDGEMMEVLI
binding [6]: binds

The remaining lines, values ahead:

binding [1]: binds
binding [2]: no binding
binding [3]: binds
binding [4]: no binding
binding [5]: binds
Molecule: β-catenin (endogenous, M10G meningioma cells) (from UniProt P35222 1-781)

binding [3]: binds
Molecule: DSG2 (endogenous, meningioma cells) (from UniProt Q14126 50-1118)

binding [3]: binds
Molecule: PP1A (endogenous, M10G meningioma cells) (from UniProt P62136 1-330) (enzyme)

— paper PMC11383945
